From US20250163186A1
No constants are given. Whether binding was seen depends on the method and setting. A result given as binding can be weak or reduced; the word gives no strength. Where a sequence is shown, tags or fusion partners need not be part of it.

Target: human IgA (Athensresearch, 16-16-090701) (human)
Assay: ELISA, plate-coated immunoglobulin

binding: binds
B1: cx10710, comprising IgG1 SELF Fc (antibody, V domains shown)
VH: QVQLQESGPGLVKPSETLSLTCAVSGYSITSGYSWNWIRQPPGKKLEWIGSITYDGSSNYNPSLKSRVTISRDTSKNQFSLKLSSVTAADTAVYYCARGSHYFGHWHFAVWGAGTLVTVSS
VL: DIQLTQSPSSLSASVGDRVTITCRASQSVDYDGDSYMNWYQQKPGQPPKLLIYAASYLGSEIPARFSGSGSGTDFTLTISSLQPEDFATYYCQQSHEDPYTFGAGTKLEIKR
